Measured values reported in article PMC11186203.
Results are given in words; binding and its absence hold for the method and conditions named. Binding seen in cells or lysates may run through a third protein. Some binding calls cover weakened binding; strength is not graded here.

B1: Rac GTPase-activating protein 1 (RACGAP1), endogenous in prostate cancer cells (protein, UniProt Q9H0H5 1-632)
chain: MDTMMLNVRNLFEQLVRRVEILSEGNEVQFIQLAKDFEDFRKKWQRTDHELGKYKDLLMKAETERSALDVKLKHARNQVDVEIKRRQRAEADCEKLERQIQLIREMLMCDTSGSIQLSEEQKSALAFLNRGQPSSSNAGNKRLSTIDESGSILSDISFDKTDESLDWDSSLVKTFKLKKREKRRSTSRQFVDGPPGPVKKTRSIGSAVDQGNESIVAKTTVTVPNDGGPIEAVSTIETVPYWTRSRRKTGTLQPWNSDSTLNSRQLEPRTETDSVGTPQSNGGMRLHDFVSKTVIKPESCVPCGKRIKFGKLSLKCRDCRVVSHPECRDRCPLPCIPTLIGTPVKIGEGMLADFVSQTSPMIPSIVVHCVNEIEQRGLTETGLYRISGCDRTVKELKEKFLRVKTVPLLSKVDDIHAICSLLKDFLRNLKEPLLTFRLNRAFMEAAEITDEDNSIAAMYQAVGELPQANRDTLAFLMIHLQRVAQSPHTKMDVANLAKVFGPTIVAHAVPNPDPVTMLQDIKRQPKVVERLLSLPLEYWSQFMMVEQENIDPLHVIENSNAFSTPQTPDIKVSLLGPVTTPEHQLLKTPSSSSLSQRVRSTLTKNTPRFGSKSKSATNLGRQGNFFASPMLK

Key:
[1] = target: T1, Rac GTPase-activating protein 1 (RACGAP1), endogenous in prostate cancer cells (human (endogenous in 22RV1, C4-2B-ENZR, C4-2B)) (UniProt Q9H0H5); experiment: co-IP; endogenous proteins; lysates of 22RV1 and C4-2B-ENZR cells (Fig. 2D) and of C4-2B-Parental and C4-2B-ENZR cells (Fig. 2J) immunoprecipitated with anti-AR, anti-AR-V7 or anti-RACGAP1 antibodies, IgG as negative control, then western blotting
T1 sequence: B1 chain

[2] = target: androgen receptor splice variant 7 (AR-V7), endogenous in prostate cancer cells (human (endogenous in 22RV1, C4-2B-ENZR)) (UniProt P10275); experiment: as above

Molecule | binding [1] | binding [2]
androgen receptor splice variant 7 (AR-V7), endogenous in prostate cancer cells (from UniProt P10275-3 1-644) | binds | –
B1 | – | binds
